“And” between values parts separate entries of the source, which are not always exact repeats. Equal entries are not always repeated. Out of some 59,000 compounds screened, about 35 (0.06%) were called active. The inconclusive results got no clear call from the source; some entries with a clear call stand among them for comparison. Rule as the data show it: active = max dye-equivalent concentration above about 10 nM; inconclusive = between about 1.1 nM and that limit; inactive = weaker than that.
Experiment: qHTS Assay for Spectroscopic Profiling in Texas Red Spectral Region
Details: Compound fluorescence, Texas Red channel, 547/618 nm; hits give high values
Outline: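 Dye-equivalent concentrations come from scaling compound signal (ex 547, em 618 nm) to six Texas Red standard concentrations run on every plate, after 15 min room-temperature incubation in pH 8.0 Tris (100 mM).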

Compound | max dye-equivalent concentration | outcome
COC(=O)Cc1nnc(NC(=O)c2ccccc2)s1 | inconclusive: 1.6e-09 M | 
COC(=O)c1cnn2c3c(c(C)nc12)CCCC3 | inconclusive: 1.1e-09 M | 
Cc1sc2nc(CN3CCOCC3)nc(Oc3ccc(NC(=O)c4ccco4)cc3)c2c1C | inconclusive: 1.4e-09 M | 
O=c1[nH]c(SCC2CCCCO2)nc2ccccc12 (stereo unspecified) | inconclusive: 1.1e-09 M | 
O=C(c1ccco1)N1CCN(C(c2ccccc2Cl)c2nnnn2CC2CCCO2)CC1 (stereo unspecified) | inconclusive: 1.3e-09 M | 
O=c1cc(N2CCC3(CC2)OCCO3)[nH]c(=O)n1C1CCCCC1 | inconclusive: 1.2e-09 M | 
O=C(Nc1ccc2c(c1)OCO2)N1CCN(S(=O)(=O)c2ccc(Cl)cc2)CC1 | inconclusive: 1.3e-09 M | 
Cc1oc(C(C)(C)C)cc1C(=O)NCC(=O)NCC(=O)O | inconclusive: 2e-09 M | 
CC(C)(C)OC(=O)N1CC=C2C(C#N)=C(N)C(C#N)(C#N)[C@H](c3cccnc3)[C@H]2C1 | inactive | 
C=CCn1c(SCC(=O)Nc2c(C)cccc2C)nnc1-c1cnccn1 | inactive | 
CCOc1ccc2[nH]c(=O)c(C(c3nnnn3Cc3ccco3)N3CCC(C)CC3)cc2c1 (stereo unspecified) | inconclusive: 1.2e-09 M | 
COc1ccc([C@@H]2[C@H]3CN(C(C)=O)CC=C3C(C#N)=C(N)C2(C#N)C#N)c2ccccc12 | inconclusive: 1.8e-09 M | 
O=[N+]([O-])c1ccc2c(N=Nc3ccc4ccccc4c3O)c(O)cc(S(=O)(=O)O)c2c1 | inactive | 
COC(=O)CCSc1nccn1Cc1ccccc1 | inconclusive: 1.6e-09 M | 
COc1ccc(S(=O)(=O)NCc2ccccn2)c(Cl)c1Cl | inconclusive: 2.3e-09 M | 
CC1(C)S[C@@H]2[C@@H](NC(=O)[C@@H](N)c3ccccc3)C(=O)N2[C@H]1C(=O)O | inactive | 
CC(C)(C)NC(=O)C(c1ccccc1)N(Cc1ccco1)C(=O)c1csnn1 (stereo unspecified) | inconclusive: 1.6e-09 M | 
O=C(CCC1CCCCC1)Nc1ncn[nH]1 | inconclusive: 1.4e-09 M | 
Cc1ccsc1C(=O)OCC(=O)NCC1CCCO1 (stereo unspecified) | inconclusive: 1.8e-09 M | 
N=C(N)c1ccc(-c2ccc(-c3ccc(C(=N)N)cc3)o2)cc1 | inactive | 
CCCCNc1nc2c(c(=O)n(C)c(=O)n2C)n1Cc1cccc(OC)c1 | inconclusive: 1.1e-09 M | 
Cc1cc(Nc2nnnn2-c2ccccc2)n(-c2ccc(Cl)cc2)n1 | inconclusive: 1.6e-09 M | 

4 compounds from above, arranged by number of heavy atoms, rising:
Compound | max dye-equivalent concentration | outcome
Cc1oc(C(C)(C)C)cc1C(=O)NCC(=O)NCC(=O)O | inconclusive: 2e-09 M | 
O=c1cc(N2CCC3(CC2)OCCO3)[nH]c(=O)n1C1CCCCC1 | inconclusive: 1.2e-09 M | 
CC(C)(C)OC(=O)N1CC=C2C(C#N)=C(N)C(C#N)(C#N)[C@H](c3cccnc3)[C@H]2C1 | inactive | 
COc1ccc([C@@H]2[C@H]3CN(C(C)=O)CC=C3C(C#N)=C(N)C2(C#N)C#N)c2ccccc12 | inconclusive: 1.8e-09 M | 

Going on with the list:

Compound | max dye-equivalent concentration | outcome
O=C1CCCc2nc3nc4ccccc4n3cc21 | inconclusive: 1.1e-09 M | 
CC(C)(C)NC(=O)CSc1nnc(NC(=O)CCn2cnc3ccccc3c2=O)s1 | inconclusive: 1.5e-09 M | 
CC1CCN(c2nc3ccccc3nc2C(C#N)C(=O)OC2CCCCC2)CC1 (stereo unspecified) | inconclusive: 1.3e-09 M | 
COC(=O)C1=C(C)Nc2nnnn2C1c1ccc(Cl)cc1Cl (stereo unspecified) | inconclusive: 3e-09 M | 
CC(C)CCn1c(N)c(S(=O)(=O)c2cccs2)c2nc3ccccc3nc21 | inconclusive: 1.1e-09 M | 
CCC(C)NC(=O)c1cnn2c1NC(c1ccc3c(c1)OCO3)CC2C(F)(F)F (stereo unspecified) | inconclusive: 1.7e-09 M | 
Cc1ccnc(N2CCC(C(=O)Nc3cccc(C(F)(F)F)c3)CC2)n1 | inconclusive: 2.5e-09 M | 
Cc1noc(NS(=O)(=O)c2ccc(N)cc2)c1C | inconclusive: 1.4e-09 M and inconclusive: 1.2e-09 M | 
CNc1nnc(CSc2nc3ccccc3s2)s1 | inconclusive: 1.2e-09 M | 
Cc1cccc(Cn2c(=O)n(CCCC(=O)NCc3ccco3)c(=O)c3ccccc32)c1 | inconclusive: 1.3e-09 M | 
CCOC(=O)c1c(-c2ccc(C)o2)csc1NC(=O)CN1CCN(CC)CC1 | inconclusive: 1.3e-09 M | 
Cc1ccc2[nH]c3c(c2c1)CN(C(=O)CN1CCN(c2ccccn2)CC1)CC3 | inactive | 
COc1cc(OC)cc(C(=O)NCc2cccnc2)c1 | inconclusive: 1.1e-09 M | 
Brc1ccccc1-c1nnc(CSc2nnnn2-c2ccccc2)o1 | inconclusive: 1.1e-09 M | 
CCCn1c(SCC(=O)NCCc2ccc(Cl)cc2Cl)n[nH]c1=O | inconclusive: 2.1e-09 M | 
Cc1nc2c(s1)sc1ccccc12 | inconclusive: 1.3e-09 M | 
O=C(O)C[n+]1ccccc1 | inactive | 
CC1CCCCC1NC(=O)c1ccc(S(=O)(=O)NCc2ccco2)cc1 (stereo unspecified) | inconclusive: 1.5e-09 M | 
CCN1CCCC1CNCc1ccc(Cl)cc1Cl (stereo unspecified) | inconclusive: 1.3e-09 M | 
CC(=O)c1nc2ccccc2n1S(=O)(=O)c1ccc(Cl)cc1 | inconclusive: 1.4e-09 M | 
COc1ccc(-c2nn3c(-c4cccc(C)c4)nnc3s2)cc1OC | inconclusive: 1.2e-09 M | 
CCOC(=O)c1cc(-c2ccc(/C=N\n3cnnc3)o2)ccc1Cl | inconclusive: 1.5e-09 M | 

Compound | max dye-equivalent concentration | outcome
Cc1ccc(-n2ncc3c2ncn2c(C)nnc32)cc1C | inconclusive: 1.2e-09 M | 
Cc1ccc(N(C(C)C(=O)N2CCC(C)CC2)S(C)(=O)=O)cc1C (stereo unspecified) | inconclusive: 1.1e-09 M | 
CN(C)CC/C=C1\c2ccccc2COc2ccccc21 | inconclusive: 1.2e-09 M | 
CCn1c(N2CCN(CC(=O)Nc3cccc(C)c3C)CC2)nc2ccccc21 | inconclusive: 1.6e-09 M | 
c1ccc(-c2cc(-c3cc(-c4ccccn4)[nH]n3)n[nH]2)nc1 | inconclusive: 1.3e-09 M | 
Cn1c(=O)oc2cc(S(=O)(=O)Nc3cccc4c3CCCC4)ccc21 | inconclusive: 2.2e-09 M | 
CN1[C@@H]2CC[C@H]1CC(OC(=O)[C@@H](CO)c1ccccc1)C2 (stereo partly specified) | inconclusive: 1.6e-09 M and inconclusive: 1.4e-09 M | inactive
Cc1ccc(C2(C(F)(F)F)NC(=O)N3CCCN=C3S2)cc1 (stereo unspecified) | inconclusive: 1.4e-09 M | 
CC(C)NC(=O)N1CCCC2(CCN(C(=O)c3ccncc3)CC2)C1 | inactive | 
O=C(CCN1CCN(C(=O)c2ccco2)CC1)Nc1ccc(F)cc1 | inconclusive: 1.1e-09 M | 
CN(C)CCOc1nc(-c2ccccc2)nc2c1oc1ccccc12 | inconclusive: 1.1e-09 M | 
O=C(N1CCCCCC1)N1CCN(S(=O)(=O)N2CCCCC2)CC1 | inconclusive: 1.4e-09 M | 
OC[C@@H]1O[C@H](O)[C@@H](Cl)[C@H](O)[C@@H]1O | inconclusive: 1.6e-09 M | 
Cc1cc(=O)[nH]c(Nc2c(C)n(C)n(-c3ccccc3)c2=O)n1 | inconclusive: 1.3e-09 M | 
CC1(C)c2ccccc2N2CC(=O)NC21/C=C/c1ccco1 (stereo unspecified) | inactive | 
COC(=O)c1ccccc1NC(=O)CSc1nnc(C(CO)NC(=O)c2ccccc2)n1C (stereo unspecified) | inconclusive: 1.2e-09 M | 
COC(=O)c1[nH]c2c(c1C)C(=O)CCC2 | inconclusive: 1.9e-09 M | 
O=S(=O)(c1cccc(C(F)(F)F)c1)N(CCCN1CCOCC1)Cc1cccs1 | inconclusive: 1.5e-09 M | 
CCCCn1nnc(NC(=O)Cc2ccc(Cl)cc2)n1 | inconclusive: 1.7e-09 M | 
CC(C)Cn1c2c(c(O)c(C(=O)Nc3ccc(F)cc3)c1=O)CCCC2 | inconclusive: 1.1e-09 M | 
O=C(Cc1cccs1)N1CCCC(c2nc3c(nnn3Cc3ccccc3Cl)c(=O)[nH]2)C1 (stereo unspecified) | inconclusive: 2.7e-09 M | 
O=C(CSc1nnnn1C1CCCCC1)Nc1ccc2c(c1)OCO2 | inconclusive: 2.7e-09 M | 

Compound | max dye-equivalent concentration | outcome
COC(=O)C1=C(C)NC(=O)NC1/C=C/c1ccccc1 (stereo unspecified) | inconclusive: 1.1e-09 M | 
Cc1cc(C)nc(Sc2c(C)n[nH]c2C)n1 | inconclusive: 1.5e-09 M | 
CC(=O)Nc1ccc(N(C(=O)c2cnccn2)C(C(=O)NC2CCCCC2)c2ccc(O)cc2)cc1 (stereo unspecified) | inconclusive: 1.5e-09 M | 
NC1=C(c2ccc(F)cc2)C(=O)CS1 | inconclusive: 1.1e-09 M | 
CN1CCn2c1nc(N1CCOCC1)nc2=O | inconclusive: 1.8e-09 M | 
CCc1nnc(NS(=O)(=O)c2ccc(NS(=O)(=O)c3ccccc3)cc2)s1 | inconclusive: 1.5e-09 M | 
CN(C)S(=O)(=O)c1cccc2nsnc12 | inconclusive: 1.1e-09 M | 
NOCC(=O)O | inconclusive: 1.3e-09 M | 
Cc1ccc2c(c1)C1OCCC1C1N2C(=O)C2C(C(=O)O)C3C=CC21O3 (stereo unspecified) | inconclusive: 1.4e-09 M | 
O=C(c1ccccc1)N1CCCC(C(=O)N2CCCCCC2)C1 (stereo unspecified) | inconclusive: 1.2e-09 M | 
COC(=O)N1CCC2(CCN(Cc3ccccc3)CC2)CC1 | inactive | 
Cc1cc(C(=O)OCC(=O)c2c(N)n(C)c(=O)n(C)c2=O)c(C)o1 | inconclusive: 1.9e-09 M | 
CCOC(=O)c1ccccc1NC(=O)c1cc2sccc2n1C | inconclusive: 1.6e-09 M | 
CC(=O)O[C@@H]1C(=O)[C@@]2(C)[C@H](O)C[C@H]3OC[C@]3(OC(C)=O)[C@@H]2[C@H](OC(=O)c2ccccc2)[C@@]2(O)C[C@H](OC(=O)[C@@H](O)[C@@H](NC(=O)c3ccccc3)c3ccccc3)C(C)=C1C2(C)C (stereo in doubt) | inconclusive: 1.1e-09 M | 
CN1CC(=O)NC1=NC(=O)C12CC3CC(CC(C3)C1)C2 | inconclusive: 1.4e-09 M | 
CCC(C)Nc1nc2c(c(=O)n(C)c(=O)n2C)n1Cc1cccc(C)c1 (stereo unspecified) | inactive | 
COCCn1c(=O)c(-c2cccc(C#N)c2)nc2cnc(Nc3ccccc3)nc21 | inactive | 
CCC(C)(C)n1nnnc1CN1CCN(c2nc3cc(OC)ccc3cc2C#N)CC1 | inconclusive: 1.8e-09 M | 
Cn1c(=O)c2c(nc(NCc3ccco3)n2CC(O)COc2ccccc2)n(C)c1=O (stereo unspecified) | inconclusive: 1.2e-09 M | 
